Measurements from “University of Dundee, Small-Polar-MMV Screening Library” (2021), ChEMBL document CHEMBL3988442.

Chains of the proteins cited; added tags and fusions are not shown. Residues count along the entry.
UniProt P9WPC5, whole entry: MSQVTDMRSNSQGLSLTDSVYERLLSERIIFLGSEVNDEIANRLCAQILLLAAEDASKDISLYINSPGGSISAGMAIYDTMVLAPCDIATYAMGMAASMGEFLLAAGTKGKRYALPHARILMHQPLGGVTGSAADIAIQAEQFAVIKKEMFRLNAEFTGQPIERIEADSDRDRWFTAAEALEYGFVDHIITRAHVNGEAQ
UniProt P9WPC3, whole entry partner: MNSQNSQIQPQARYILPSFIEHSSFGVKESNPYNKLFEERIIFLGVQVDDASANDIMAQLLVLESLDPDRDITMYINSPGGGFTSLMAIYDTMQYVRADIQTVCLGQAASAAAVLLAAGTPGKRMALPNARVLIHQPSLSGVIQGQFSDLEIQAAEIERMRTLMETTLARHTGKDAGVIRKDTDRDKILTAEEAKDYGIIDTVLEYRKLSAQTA
UniProt Q8IDJ8, 1-583: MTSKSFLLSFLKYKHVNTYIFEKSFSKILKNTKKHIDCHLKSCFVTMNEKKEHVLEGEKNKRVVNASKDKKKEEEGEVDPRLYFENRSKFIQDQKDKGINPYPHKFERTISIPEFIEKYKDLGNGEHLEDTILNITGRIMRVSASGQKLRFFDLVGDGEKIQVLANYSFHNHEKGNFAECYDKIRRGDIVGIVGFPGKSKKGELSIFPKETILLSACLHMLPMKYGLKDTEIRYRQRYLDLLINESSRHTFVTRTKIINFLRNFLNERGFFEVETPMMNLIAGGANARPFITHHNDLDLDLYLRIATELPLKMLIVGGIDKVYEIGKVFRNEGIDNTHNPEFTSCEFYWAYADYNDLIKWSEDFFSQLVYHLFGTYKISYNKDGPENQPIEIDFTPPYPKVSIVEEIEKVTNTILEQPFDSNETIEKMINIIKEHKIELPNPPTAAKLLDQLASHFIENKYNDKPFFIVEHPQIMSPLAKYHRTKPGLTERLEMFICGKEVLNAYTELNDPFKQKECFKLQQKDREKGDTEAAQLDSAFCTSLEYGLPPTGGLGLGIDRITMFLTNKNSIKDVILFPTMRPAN
UniProt P9WFT3, whole entry: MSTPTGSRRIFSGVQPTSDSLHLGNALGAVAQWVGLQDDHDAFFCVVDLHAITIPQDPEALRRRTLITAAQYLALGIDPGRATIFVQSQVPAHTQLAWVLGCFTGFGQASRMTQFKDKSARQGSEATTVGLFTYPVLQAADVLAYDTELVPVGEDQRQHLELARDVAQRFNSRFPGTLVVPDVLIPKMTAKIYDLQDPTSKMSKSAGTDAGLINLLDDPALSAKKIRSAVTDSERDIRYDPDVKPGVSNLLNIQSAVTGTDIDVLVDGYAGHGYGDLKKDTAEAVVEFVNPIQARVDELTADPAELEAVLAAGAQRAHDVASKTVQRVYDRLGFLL
UniProt A4I591, 1-473: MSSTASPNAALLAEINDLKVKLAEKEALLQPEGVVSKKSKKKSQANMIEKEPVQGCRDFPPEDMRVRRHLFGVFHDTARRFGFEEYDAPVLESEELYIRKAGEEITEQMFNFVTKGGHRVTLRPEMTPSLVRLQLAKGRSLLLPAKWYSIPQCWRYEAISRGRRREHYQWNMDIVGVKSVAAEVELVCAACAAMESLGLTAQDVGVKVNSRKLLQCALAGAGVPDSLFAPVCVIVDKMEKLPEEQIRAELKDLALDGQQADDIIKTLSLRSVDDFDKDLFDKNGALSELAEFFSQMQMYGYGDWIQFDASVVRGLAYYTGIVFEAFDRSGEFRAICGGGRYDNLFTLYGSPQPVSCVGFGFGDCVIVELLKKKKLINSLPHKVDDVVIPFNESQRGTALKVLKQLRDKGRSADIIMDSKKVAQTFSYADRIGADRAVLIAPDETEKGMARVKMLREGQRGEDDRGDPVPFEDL
UniProt Q4DA54, 1-478: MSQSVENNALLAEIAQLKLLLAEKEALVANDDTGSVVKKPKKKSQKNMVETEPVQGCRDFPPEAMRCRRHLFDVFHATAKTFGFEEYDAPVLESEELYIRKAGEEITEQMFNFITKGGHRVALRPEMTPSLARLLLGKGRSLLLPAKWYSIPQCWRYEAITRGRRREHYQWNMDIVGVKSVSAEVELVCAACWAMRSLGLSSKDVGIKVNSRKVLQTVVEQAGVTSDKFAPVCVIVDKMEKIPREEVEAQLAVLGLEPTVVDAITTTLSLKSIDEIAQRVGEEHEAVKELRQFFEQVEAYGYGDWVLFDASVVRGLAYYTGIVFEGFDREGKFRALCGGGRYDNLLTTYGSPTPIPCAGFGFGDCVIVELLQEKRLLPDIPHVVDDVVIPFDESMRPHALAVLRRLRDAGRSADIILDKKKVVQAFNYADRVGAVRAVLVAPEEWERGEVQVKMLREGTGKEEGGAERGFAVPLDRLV

Values are the deposited “Percent Effect”, in %.
The controls that fix the scale are not given in the record; negative values are as filed.
The compounds are a random part of those screened.

A: 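Protease assay of ClpP1P2, read by the AMC dye that it sets free. Target: ClpP1P2, Mycobacterium tuberculosis (UniProt P9WPC5 and UniProt P9WPC3). Compounds at 50 µM. Direction is inferred from only a few compounds that gave an IC50; most scored high, so higher reads as stronger inhibition. Most other retested compounds had strongly negative values. About 69,000 compounds were tested under these conditions; 0.015% (about 10) showed 50% or more at least once.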
B: 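Lysine-tRNA ligase, Plasmodium falciparum 3D7 (UniProt Q8IDJ8). Enzyme assay of the cytosolic lysyl-tRNA synthetase in 384-well plates, read by luminescence. Compounds at 30 µM. Higher reads as stronger inhibition, judged from the few compounds that gave an IC50. Of about 69,000 compounds tested this way, about 49 (0.071%) reached 50% or more in at least one test.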
C: 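Tryptophan-tRNA ligase, Mycobacterium tuberculosis (UniProt P9WFT3). Enzyme assay of tryptophanyl-tRNA synthetase; the read-out is not stated. Compounds at 10 µM. Higher most likely means stronger inhibition; the record gives no direction and few retests gave an IC50. About 65,000 compounds were tested under these conditions; 0.098% (about 64) showed 50% or more at least once.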
D: 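Enzyme assay of histidyl-tRNA synthetase; the read-out is not stated. Target: Histidine-tRNA ligase, Leishmania infantum (UniProt A4I591). Compounds at 30 µM. Higher reads as stronger inhibition (inferred: compounds with an IC50 in retests scored well above the rest). The assay is labelled LdHisRS but filed under L. infantum. Size under these conditions: about 69,000 compounds, about 410 of them at 50% or above in at least one test.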
E: 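Enzyme assay of histidyl-tRNA synthetase; the read-out is not stated. Target: Histidine-tRNA ligase, Trypanosoma cruzi CL Brener (UniProt Q4DA54). Tested at 30 µM. Higher reads as stronger inhibition (inferred: compounds with an IC50 in retests scored well above the rest). Of about 69,000 compounds tested this way, about 31 (0.045%) reached 50% or more in at least one test.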
F: 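Cell assay of Leishmania donovani living inside macrophages; the read-out is not stated. Compounds at 30 µM. Higher reads as stronger inhibition (inferred: compounds with an IC50 in retests scored well above the rest). Of about 69,000 compounds tested this way, about 1,000 (1.5%) reached 50% or more in at least one test.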

{"smiles": "COc1ccccc1COCC(O)CN1CCC(c2ccn[nH]2)CC1", "stereo": "stereo unspecified", "A": -11.77, "B": -1.697, "C": 1.261, "D": 5.085, "E": 3.429, "F": 22.97}
{"smiles": "Cc1nccn1C1(C(=O)O)CCN(Cc2ccc3nsnc3c2)CC1", "A": -7.82, "B": -0.1855, "C": -2.974, "D": 8.219, "E": 0.5405, "F": -6.614}
{"smiles": "CCN(CCNS(=O)(=O)C1CCOCC1)C(=O)OC(C)(C)C", "A": 1.849, "B": 8.801, "C": -1.224, "D": 15.93, "E": 0.8929, "F": 14.25}
{"smiles": "[H][C@]12C[C@H](C(=O)NC)N(S(C)(=O)=O)[C@@]1([H])CN(C(=O)c1ccoc1)C2", "F": -5.591}
{"smiles": "CC(C)C1CN(C(=O)c2cc(=O)[nH]c(=O)[nH]2)CCC(=O)N1CC1CC1", "stereo": "stereo unspecified", "A": -3.666, "B": 7.118, "C": 0.854, "D": 0, "E": 6.186, "F": 16.5}
{"smiles": "CCC[C@H]1CN(c2nccc(OC)n2)C[C@@H]1NC(=O)C1CCOCC1", "A": -17.13, "B": 0.9196, "C": -1.991, "D": 0, "E": 5.464, "F": 16.71}
{"smiles": "NS(=O)(=O)N1CCc2ccc(NC(=O)Cc3ccc(F)cc3)cc21", "A": 70.26, "B": 3.304, "C": -4.775, "D": 19.23, "E": 3.306, "F": 2.47}
{"smiles": "COCC(=O)N1CCC2(CCN(Cc3cccnc3)C2)CC1.O=C(O)C(F)(F)F.O=C(O)C(F)(F)F", "F": 22.03}
{"smiles": "C[C@@H]1CC[C@@H](C)N1C(=O)c1cc(COc2ccccc2)[nH]n1", "A": 17.15, "B": 6.613, "C": -8.614, "D": 20.98, "E": 10.45, "F": -1.646}
{"smiles": "COc1ccnc(N2CCCN(Cc3ncc(C(C)C)o3)CC2)n1", "A": -24.32, "B": 3.605, "C": 2.726, "D": -3.896, "E": 6.404, "F": 8.755}
{"smiles": "CCc1cc(NCCCc2nc(C)no2)nc(-c2ccncc2)n1", "A": -6.505, "B": 1.141, "C": -7.055, "D": 3.109, "E": 4.972, "F": -6.6}
{"smiles": "Fc1cccc(N2CCCC3(CN(Cc4ccncc4)CCO3)C2)c1", "stereo": "stereo unspecified", "A": -4.435, "B": -1.156, "C": 1.586, "D": 16.79, "E": 9.29}
{"smiles": "COCCC(=O)N1C[C@H]2CN(Cc3cccnc3)C(=O)[C@H]2C1", "A": 14.46, "B": 2.713, "C": -4.07, "D": 13.46, "E": 6.796}
{"smiles": "CC(C)NC(=O)CCNC(=O)Nc1cnn(-c2ccccc2Cl)c1", "A": -3.173, "B": 5.78, "C": -1.791, "D": 14.29, "E": 2.463, "F": 32.34}
{"smiles": "CC(=O)N1CCC2(CC1)CN(C(=O)c1cccnc1)c1ccc(F)cc12", "A": 7.561, "B": 3.558, "D": 13.86, "E": 2.513}
{"smiles": "Cc1nc(CNC(=O)NCCc2ccc(N(C)C)cc2)cs1", "A": 4.706, "B": 5.322, "C": 1.8, "D": 14.29, "E": 3.008, "F": 24.49}